The campaign covered roughly 220,000 compounds. About 2,400 (1.1%) were called active. Inconclusive results, whose numbers are uncertain, are shown with a selection of clear calls. Calls follow the shape of the dose curve; as a rule, active = well fitted inhibition curve with a large enough effect; inconclusive = small, poorly fitted or top-dose-only effect, or effect the other way; inactive = no such curve, though single readings can be large or run the other way. Potencies of inconclusive entries are doubtful fits and often do not repeat.
Experiment: qHTS Multiplex Assay to Identify Dual Action Probes in a Cell Model of Huntington: Aggregate Formation (GFP); also: nearly all actives have a fitted effect of over 60% in size
Settings: PC12 HttQ103-GFP aggregates, Acumen cytometry, 40 h; activity change, negative = inhibition: at 46.1 µM (top of the series) unless noted
In short: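 Inducible Q103 Huntingtin exon 1–GFP PC12 line, 1500 cells/well in phenol red free DMEM with 5% equine and 5% calf serum. Tebufenozide 100 nM induced expression; compounds titrated; aggregates quantified by cytometry.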
% is scaled to controls: 0 for no effect and ±100 for the full control effect; potency is read from the fitted curve at half-maximal effect.

SMILES	Potency	activity change, negative = inhibition
Cc1cccc(/C=N\NC(=O)c2ccc(Cl)cc2)c1O	active: 0.447 µM	
Fc1cccc(NC(=S)NCCc2ccccc2)c1	inactive	
CCC(C)NCCCCOc1ccc(Cl)cc1C (centres undefined)	inconclusive: 3.16 µM [inhibitor, partial curve]	
C[C@H](NC(=O)c1nc[nH]c1C(=O)N[C@@H](Cc1ccccc1)C(=O)OCc1ccccc1)c1ccccc1		inactive: 5.64% [at 9.22 µM]
O=C(Nc1cc(C(F)(F)F)ccc1N1CCOCC1)C1Cc2ccccc2CN1C(=O)c1ccco1 (centres undefined)	inconclusive: 12.6 µM [activator, partial curve]	
Cc1nc(Nc2ncc(C(=O)Nc3c(C)cccc3Cl)s2)cc(N2CCN(CCO)CC2)n1	inconclusive: 35.5 µM [inhibitor, partial curve, poor fit]	
CCCOc1ccc(C(=O)NNC(=S)NC(=O)c2cc(-c3ccccc3)nc3ccccc23)cc1	active: 7.08 µM	
O=C(O)c1cccc(OCc2ccccc2Cl)c1	inactive	
O=C(c1ccco1)c1coc2c1cc(O)c1ccccc12		inactive: 17.5% [at 9.22 µM]
COc1ccc(-c2cc(C3CCN(c4cc(Cl)nc(N)n4)CC3)[nH]n2)cc1	active: 12.6 µM	
CCN1CCc2c(OCC(=O)N3N=C(c4cccs4)CC3c3ccc(F)cc3)cccc2C1=O (centres undefined)	inconclusive: 17.8 µM [inhibitor, single point]	
COc1ccc(-n2nnc3c(=O)n(CC(=O)NCC4CCCO4)cnc32)cc1 (centres undefined)	inconclusive: 4.47 µM [activator, full curve, poor fit]	
Cc1cccc(C)c1NC(=O)CCCSc1nnc(-c2ccc(Cl)cc2)n1-c1ccccc1	inconclusive: 12.6 µM [inhibitor, partial curve]	
Cc1ccc(NC(=O)N2CCCC2)cc1Cl	inconclusive: 10 µM [inhibitor, partial curve]	
O=C(NCc1ccco1)C(c1ccccc1)N(C(=O)Cc1cccs1)c1ccccc1 (centres undefined)	inactive	
CN(C)/C=C/C(=O)c1cccc(Cl)c1	inconclusive: 2.51 µM [activator, full curve]	
O=C(NNC(=S)Nc1cccc(Cl)c1)c1ccccc1OC(F)F	active: 11.2 µM	
O=C(CCS(=O)(=O)c1ccc(Br)s1)NCc1ccccc1	inactive	
CCOC(=O)Nc1sc2c(c1C#N)CCC(C)C2 (centres undefined)	inactive	
CC(C)(C)C(=O)NC(=S)NNC(=O)c1ccc(Cl)cc1Cl	inconclusive: 14.1 µM [inhibitor, single point]	
CCOc1cc(/C=N/NC(=O)COc2ccccc2C)ccc1OC(=O)c1cccs1	inconclusive: 10 µM [activator, partial curve]	
O=C(CN1CCN(c2ccccn2)CC1)N(c1ccccc1)c1ccc2ccccc2c1	inconclusive: 35.5 µM [inhibitor, single point]	

Exported field by field: part of the list above
CCN1CCc2c(OCC(=O)N3N=C(c4cccs4)CC3c3ccc(F)cc3)cccc2C1=O (centres undefined)
  Potency: inconclusive: 17.8 µM [inhibitor, single point]
COc1ccc(-n2nnc3c(=O)n(CC(=O)NCC4CCCO4)cnc32)cc1 (centres undefined)
  Potency: inconclusive: 4.47 µM [activator, full curve, poor fit]

The list continues.

SMILES	Potency	activity change, negative = inhibition
Cn1cccc1/C=N/n1c(-c2ccc(Cl)cc2)n[nH]c1=S	inactive	
CN1CCN(S(=O)(=O)c2ccc(-c3noc(C4CCN(S(C)(=O)=O)CC4)n3)cc2)CC1	inconclusive: 5.01 µM [inhibitor, single point]	
CC1CCN(S(=O)(=O)c2cc(C(=O)N3CCN(c4ncccn4)CC3)ccc2Br)CC1	inconclusive: 35.5 µM [inhibitor, single point]	
Cc1ccc(Nc2cc(C)nc(NCc3ccccc3)n2)cc1	inconclusive: 35.5 µM [inhibitor, single point]	
O=C(Nc1ccc(C(=O)N2CCOCC2)cc1)c1cc(-c2cccnc2)nc2ccc(Br)cc12	inactive	
O=[N+]([O-])c1cc(S(=O)(=O)NCCN2CCOCC2)ccc1Sc1nnnn1-c1ccccc1	active: 4.47 µM	
CCCCn1ccnc1C(=O)c1cccc(S(=O)(=O)N2c3ccccc3CC2C)c1 (centres undefined)	inconclusive: 25.1 µM [inhibitor, single point]	
CCCCC(=O)NC(c1ccco1)c1cc(Cl)c2cccnc2c1O (centres undefined)		inactive: -2.39% [at 9.22 µM]
COc1ccc(C)cc1NC(=O)c1cc2c(=O)n3ccccc3nc2n1C	inconclusive: 6.31 µM [activator, partial curve, poor fit]	
CCOC1=NN(c2ncc(C(F)(F)F)cc2Cl)C(=O)/C1=C/N(C)C	inactive	
O=C(NCCOCc1ccccc1)C(c1ccccc1)c1ccccc1	inconclusive: 35.5 µM [inhibitor, single point]	
O=C(c1ccc(CNS(=O)(=O)c2ccccc2)cc1)N1CCN(Cc2ccccc2)CC1	inconclusive: 0.562 µM [inhibitor, full curve, poor fit]	
O=C(NCc1ccco1)c1ccc(S(=O)(=O)N2CCCc3ccccc32)cc1	inconclusive: 35.5 µM [inhibitor, single point]	
O=C(CCS(=O)(=O)c1ccccc1)Nc1ccccc1F	inconclusive: 0.501 µM [activator, partial curve, poor fit]	
COc1ccc(-c2n(CC(=O)OC3CC(C)CCC3C(C)C)c3ccccc3[n+]2C)cc1 (centres undefined)		inactive: 1.13% [at 9.22 µM]
Cc1ccc(OCCSCc2nnc(NC(=O)Nc3cccc(Cl)c3)s2)cc1	active: 8.91 µM	
Cc1ccc(-c2nc(=S)c3c(n2CC2CCCO2)CC(C)(C)OC3)cc1 (centres undefined)	inconclusive: 22.4 µM [activator, single point]	
Cc1nc(-c2cccc(NS(=O)(=O)c3ccccc3)c2)cs1	inconclusive: 25.1 µM [inhibitor, partial curve]	
CN(C)c1ccc(C(=C2C=CC(=[N+](C)C)C=C2)c2ccc(N(C)C)cc2)cc1	inconclusive: 4.47 µM [inhibitor, full curve, poor fit]	
O=C1C2C3C=CC(C4CC34)C2C(=O)N1/N=C/c1ccc(-c2ccc(Cl)cc2[N+](=O)[O-])o1 (centres undefined)	inconclusive: 22.4 µM [inhibitor, single point]	
CCCS(=O)(=O)c1nc(S(=O)(=O)c2ccc(C)cc2)c(NCCCN(C)C)s1	inactive	
Cc1ccc(S(=O)(=O)N/N=C2/CC(c3ccccc3)Oc3ccccc32)cc1 (centres undefined)	inconclusive: 35.5 µM [inhibitor, single point]	
